# In the supplement of paper PMC10849652:
# Chains of the proteins cited; added tags and fusions are not shown. Lines headed by an entry give the natural chain unless they say otherwise; changes in a name come on top.
# UniProt Q99618: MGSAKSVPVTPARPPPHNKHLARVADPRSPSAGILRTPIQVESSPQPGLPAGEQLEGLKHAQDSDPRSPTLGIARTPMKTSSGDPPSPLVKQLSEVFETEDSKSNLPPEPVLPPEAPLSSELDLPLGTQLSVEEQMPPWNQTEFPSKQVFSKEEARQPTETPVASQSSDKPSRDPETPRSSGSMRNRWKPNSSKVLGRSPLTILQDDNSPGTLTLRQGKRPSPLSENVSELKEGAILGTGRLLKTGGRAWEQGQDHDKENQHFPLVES
# UniProt Q99459: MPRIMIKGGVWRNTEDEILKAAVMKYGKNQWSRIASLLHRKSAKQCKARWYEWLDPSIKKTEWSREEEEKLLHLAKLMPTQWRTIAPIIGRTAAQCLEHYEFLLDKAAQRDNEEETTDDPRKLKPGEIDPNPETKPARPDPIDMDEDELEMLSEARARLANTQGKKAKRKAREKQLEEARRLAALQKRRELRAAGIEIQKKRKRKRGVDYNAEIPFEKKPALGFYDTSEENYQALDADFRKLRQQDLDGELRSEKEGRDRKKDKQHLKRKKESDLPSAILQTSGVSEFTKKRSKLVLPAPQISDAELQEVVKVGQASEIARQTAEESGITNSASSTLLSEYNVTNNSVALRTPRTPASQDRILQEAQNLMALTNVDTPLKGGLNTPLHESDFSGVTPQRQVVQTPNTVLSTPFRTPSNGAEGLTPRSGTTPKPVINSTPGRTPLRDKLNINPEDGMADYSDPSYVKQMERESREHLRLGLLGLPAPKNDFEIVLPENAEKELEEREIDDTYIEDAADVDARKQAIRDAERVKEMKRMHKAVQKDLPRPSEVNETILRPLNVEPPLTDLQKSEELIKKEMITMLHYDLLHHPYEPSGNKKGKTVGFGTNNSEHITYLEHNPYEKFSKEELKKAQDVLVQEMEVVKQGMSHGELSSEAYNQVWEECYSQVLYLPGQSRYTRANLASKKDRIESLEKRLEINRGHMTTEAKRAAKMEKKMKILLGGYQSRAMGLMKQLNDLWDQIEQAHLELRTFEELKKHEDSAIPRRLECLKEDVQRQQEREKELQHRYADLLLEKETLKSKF
# UniProt P30307: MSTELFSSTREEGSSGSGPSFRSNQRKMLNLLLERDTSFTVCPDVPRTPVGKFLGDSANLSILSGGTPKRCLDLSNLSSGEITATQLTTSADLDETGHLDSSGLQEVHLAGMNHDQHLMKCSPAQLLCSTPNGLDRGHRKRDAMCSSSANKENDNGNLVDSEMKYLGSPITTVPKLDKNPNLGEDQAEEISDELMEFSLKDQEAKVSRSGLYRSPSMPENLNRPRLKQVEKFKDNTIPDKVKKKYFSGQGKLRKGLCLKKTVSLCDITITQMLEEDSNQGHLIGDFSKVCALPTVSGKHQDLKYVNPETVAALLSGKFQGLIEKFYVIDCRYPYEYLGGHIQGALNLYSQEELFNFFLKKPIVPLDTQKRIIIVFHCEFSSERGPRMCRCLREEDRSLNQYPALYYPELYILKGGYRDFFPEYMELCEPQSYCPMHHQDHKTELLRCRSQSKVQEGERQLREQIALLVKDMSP
# UniProt Q01850: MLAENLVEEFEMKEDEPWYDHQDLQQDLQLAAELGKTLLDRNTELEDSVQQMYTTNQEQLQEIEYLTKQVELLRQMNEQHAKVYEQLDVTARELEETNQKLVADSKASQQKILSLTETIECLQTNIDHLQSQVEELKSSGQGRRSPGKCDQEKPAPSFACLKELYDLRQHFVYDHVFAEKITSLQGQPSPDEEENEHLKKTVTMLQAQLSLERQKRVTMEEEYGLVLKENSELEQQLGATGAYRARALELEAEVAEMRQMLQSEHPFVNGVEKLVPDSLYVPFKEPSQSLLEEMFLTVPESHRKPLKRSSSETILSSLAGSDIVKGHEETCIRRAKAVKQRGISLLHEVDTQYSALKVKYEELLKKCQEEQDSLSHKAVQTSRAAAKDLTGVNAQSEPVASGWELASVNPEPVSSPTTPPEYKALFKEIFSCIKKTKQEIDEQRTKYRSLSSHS
# UniProt Q96FF9: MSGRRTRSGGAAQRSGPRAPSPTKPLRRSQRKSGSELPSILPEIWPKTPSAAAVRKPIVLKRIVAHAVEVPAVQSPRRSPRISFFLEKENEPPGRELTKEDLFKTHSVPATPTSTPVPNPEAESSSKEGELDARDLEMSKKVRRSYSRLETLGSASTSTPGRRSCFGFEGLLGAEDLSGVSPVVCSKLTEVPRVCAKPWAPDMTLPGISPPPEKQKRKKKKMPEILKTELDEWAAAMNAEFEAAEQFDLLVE
# UniProt P06493, whole entry, looked up: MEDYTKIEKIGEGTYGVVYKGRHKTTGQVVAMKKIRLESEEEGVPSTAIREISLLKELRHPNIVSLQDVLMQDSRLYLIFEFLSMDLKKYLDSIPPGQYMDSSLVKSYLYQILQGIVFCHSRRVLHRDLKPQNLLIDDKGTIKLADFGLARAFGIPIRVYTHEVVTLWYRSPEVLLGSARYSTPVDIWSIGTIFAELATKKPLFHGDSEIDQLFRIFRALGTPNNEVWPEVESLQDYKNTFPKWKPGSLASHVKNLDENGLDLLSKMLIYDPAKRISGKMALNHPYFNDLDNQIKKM
# UniProt P60953, whole entry, looked up: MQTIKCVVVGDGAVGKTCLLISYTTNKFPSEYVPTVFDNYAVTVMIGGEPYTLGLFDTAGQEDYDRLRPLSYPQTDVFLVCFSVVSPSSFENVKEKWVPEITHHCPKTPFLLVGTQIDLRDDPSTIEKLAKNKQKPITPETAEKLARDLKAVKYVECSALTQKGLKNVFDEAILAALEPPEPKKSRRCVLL
# UniProt Q8NHZ8, whole entry, looked up: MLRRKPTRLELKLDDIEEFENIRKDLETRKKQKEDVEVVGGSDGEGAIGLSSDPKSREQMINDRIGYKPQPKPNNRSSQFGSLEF
# UniProt Q96JB5: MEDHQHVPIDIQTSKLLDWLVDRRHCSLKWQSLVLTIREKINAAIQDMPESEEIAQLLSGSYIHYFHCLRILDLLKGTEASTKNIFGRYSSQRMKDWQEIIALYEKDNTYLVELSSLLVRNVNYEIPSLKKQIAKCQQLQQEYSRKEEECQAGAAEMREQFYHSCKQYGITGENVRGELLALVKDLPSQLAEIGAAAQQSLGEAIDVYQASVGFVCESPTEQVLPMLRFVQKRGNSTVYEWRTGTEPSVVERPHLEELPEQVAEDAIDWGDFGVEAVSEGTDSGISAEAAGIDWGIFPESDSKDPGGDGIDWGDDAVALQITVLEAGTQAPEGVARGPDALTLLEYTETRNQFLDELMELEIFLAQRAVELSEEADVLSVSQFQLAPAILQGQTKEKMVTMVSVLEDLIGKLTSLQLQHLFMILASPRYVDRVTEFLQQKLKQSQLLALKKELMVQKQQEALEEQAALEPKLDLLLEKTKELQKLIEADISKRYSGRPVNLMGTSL
# This is one part of the list.
# Compound: c1ccc([C@@H]2C[C@H]2NC2CCNCC2)cc1
# Experiment: log2 fold change, soluble protein after heating vs DMSO (PISA); higher = thermal stabilisation; K562 lysate, 10 uM; active = over 0.2 and 3.5 SD of the protein, either way, in both replicates (recomputed)
# Method in brief: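 A 30 min treatment with 10 μM compound was applied to crude K562 extract at 1 mg/mL protein in PBS pH 7.4 with 1 mM MgCl2. Heating for 3 min spanned 48°C-58°C, after which aliquots were pooled, adjusted to 0.5% NP-40 at 4°C and spun at 21,000xg for 90 min. TMTpro 16plex LC-MS/MS of the supernatant, with channel sums equalised, gave values recorded as log-two fold change in thermal stability against solvent controls, from duplicates.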
row,Target,log2 fold change
1,CDCA3 (UniProt Q99618),inactive: -0.062
2,CDC5L (UniProt Q99459),inactive: 0.012
3,CDC25C (UniProt P30307),inactive: 0.027
4,CDR2 (UniProt Q01850),inactive: -0.011
5,CDCA5 (UniProt Q96FF9),inactive: 0.044
6,CDK1 (UniProt P06493),inactive: 0.018
7,CDC42 (UniProt P60953),inactive: 0.045
8,CDC26 (UniProt Q8NHZ8),inactive: -0.016
9,CDC73 (UniProt Q6P1J9),inactive: 0.045
10,CDK5RAP3 isoform 4 (UniProt Q96JB5),inactive: -0.154
